We go through 38 compounds from paper PMC12670160, “A drug-repurposing screen of FDA- and EMA-approved drugs identifies two NF-κB inhibitors active against eumycetoma” (Journal of Antimicrobial Chemotherapy, 2025).

Counter-ions that a name gives are not always drawn. The whole screen tested about 5,300 compounds, of which about 130 (2.5%) showed an effect of 50% or more. The list shows a part of the results.

For this assay, the system named is M. mycetomatis strain mm55. Particulars: primary screen, metabolic activity vs growth control; 96 h, 2 µM; inhibitor.
Regarding `C[C@H](CCC(=O)O)[C@H]1CC[C@H]2[C@@H]3C[C@H](O)[C@@H]4C[C@H](O)CC[C@]4(C)[C@H]3CC[C@]12C` [ONC0004931, hyodeoxycholic acid hdca], the “% viability” value turned out to be 102%.

Consider `CCn1cnc(C(=O)NC)c1C(=O)NC` [ONC0001110, etimizol], for which the “% viability” value is on record as 66.67%. Consider `O=C1NN(C(=O)Nc2ccc(Br)cc2)[C@@H](c2ccccc2)[C@@H]1c1ccccc1` [ONC0002551, ly288513], for which the “% viability” value came to 75.36%. Then `CO/N=C(\C(=O)N[C@@H]1C(=O)N2C(C(=O)O)=C(CSC(=O)c3ccco3)CS[C@H]12)c1csc(N)n1` [ONC0004296, ceftiofur hydrochloride], with 90.25%; and `N[C@@H]1CCN(O)C1=O` [ONC0004324, ha966r], with 106.3%; and `CN(C)C(=O)N[C@H]1CC[C@H](CCN2CCN(c3cccc(Cl)c3Cl)CC2)CC1` [ONC0001226, cariprazine], with 115%. Then `CC(=O)Nc1ccc(OCC(O)CNC(C)C)cc1` (centres unmarked) [ONC0002176, practolol], with 73.91%. Turning to `COc1ccnc2[nH]cc(C(=O)C(=O)N3CCN(C(=O)c4ccccc4)C[C@H]3C)c12` [ONC0005222, bms806 bms 378806], the “% viability” value is recorded as 134.6%.

As to `CCCC(=O)Nc1ccc(OCC(O)CNC(C)C)c(C(C)=O)c1` (centres unmarked) [ONC0003369, acebutolol hydrochloride], the “% viability” value stood at 44.26%. For `C[C@@H]1O[C@@H](OC[C@H]2O[C@@H](Oc3c(-c4ccc(O)c(O)c4)oc4cc(O)cc(O)c4c3=O)[C@H](O)[C@@H](O)[C@@H]2O)[C@H](O)[C@H](O)[C@H]1O` [ONC0003327, rutin] the value was 87%; for `CC(O)(CS(=O)(=O)c1ccc(F)cc1)C(=O)Nc1ccc(C#N)c(C(F)(F)F)c1` (centres unmarked) [ONC0004751, bicalutamide casodex], 86.52%; for `CCN(CC)CCNC(=O)c1ccc(I)cc1` [ONC0002582, ibza], 67.62%. Regarding `CCC(=O)O[C@@H](OP(=O)(CCCCc1ccccc1)CC(=O)N1C[C@H](C2CCCCC2)C[C@H]1C(=O)O)C(C)C` (some centres unmarked) [ONC0005007, fosinopril sodium monopril], the “% viability” value is reported as 152.1%. Then `C=CC(C)(O)CCC=C(C)C` (centres unmarked) [ONC0002978, linalool], with 159.2%; and `CC(=O)O[C@]1(C(C)=O)CC[C@H]2[C@@H]3C=C(C)C4=CC(=O)CC[C@]4(C)[C@H]3CC[C@@]21C` [ONC0000478, megestrol acetate], with 64.15%.

For the compound `CN(C)C(=O)c1cc2cnc(Nc3ccc(N4CCNCC4)cn3)nc2n1C1CCCC1` [ONC0005183, ribociclib lee011], the “% viability” value amounted to 120.1%.

With `NC[C@H]1O[C@H](O[C@H]2[C@H](O)[C@@H](O[C@H]3O[C@H](CO)[C@@H](O)[C@H](N)[C@H]3O)[C@H](N)C[C@@H]2N)[C@H](N)[C@@H](O)[C@@H]1O` [ONC0003920, bekanamycin sulfate], the “% viability” value is listed as 71.98%. Consider `CCNCCCNCCCCNCCCNCC` [ONC0001353, 112besm], for which the “% viability” value was found to be 108.7%. Take `Cc1cccc(C)c1NC(=O)CN1CCN(CCCC(c2ccc(F)cc2)c2ccc(F)cc2)CC1` [ONC0002360, lidoflazine]: the “% viability” value is 112.8%. Then `Oc1cc(O)cc(/C=C/c2ccc(O)c(O)c2)c1` [ONC0004475, piceatannol], with 94.27%; and `O=C(NC1CC1)c1cc(-c2cccs2)on1` [ONC0002467, isx9], with 66.36%.

Consider `CN1C(=O)N(c2cc(Cl)cc(Cl)c2)C(=O)[C@]12CN(Cc1cc(C(=O)O)cs1)C[C@H]2c1ccc(C#N)cc1` [ONC0001973, bms587101], for which the “% viability” value is reported as 86%. For `CCCCOc1ccc(-c2cncc(C(=O)NCc3cccnc3N3CCOCC3)c2)cc1Cl` [ONC0002493, a887826] the value was 81.72%; for `CCN1CCN(c2ccc(Nc3cc(N(C)C(=O)Nc4c(Cl)c(OC)cc(OC)c4Cl)ncn3)cc2)CC1` [ONC0004412, bgj398 nvpbgj398], 153.1%; for `Nc1nc(=O)[nH]cc1F` [ONC0004154, flucytosine], 87.46%. For the compound `Clc1cc(Cl)c(OCC#CI)cc1Cl` [ONC0002291, haloprogin], the “% viability” value was 78.44%.

Regarding `CCCCCS(=O)(=O)CCCCCCCCCCn1c(-c2ccc(O)cc2)c(C)c2cc(O)ccc21` [ONC0000107, zk164015], the “% viability” value is 115.3%.

As for `CC[C@@]1(O)C(=O)OCc2c1cc1n(c2=O)Cc2cc3c(CN(C)C)c(O)ccc3nc2-1` [ONC0000766, topotecan hydrochloride], the “% viability” value is listed as 74.7%. Then `Cc1cc(Nc2cc(CN3CCOCC3)c3nc(C)c(Cc4ccc(Cl)cc4F)n3n2)n[nH]1` [ONC0004991, gandotinib ly2784544], with 97.64%; and `CCOC(=O)N[C@@H]1CC[C@@H]2[C@@H](C1)C[C@H]1C(=O)O[C@H](C)[C@H]1[C@H]2/C=C/c1ccc(-c2cccc(F)c2)cn1` [ONC0000376, vorapaxar], with 61.62%; and `NCCNc1ccc(NCCN)c2c1C(=O)c1ccncc1C2=O.O=C(O)/C=C\C(=O)O.O=C(O)/C=C\C(=O)O` [ONC0000916, pixantrone dimaleate], with 85.22%. For `Nc1nnc(-c2cccc(Cl)c2Cl)c(N)n1` [ONC0004106, lamotrigine] the value was 106.8%; for `O=c1c(-c2ccccc2)c1-c1ccccc1` [ONC0002186, diphencyprone], 90.26%; for `CN1C(=O)N(c2ccc(C#N)c(C(F)(F)F)c2)C(=O)[C@]1(CO)c1ccccc1` [ONC0001168, glpg0492 r enantiomer], 118.7%. Then `O=C1c2ccccc2CCC1CNCCc1ccc(O)cc1` (centres unmarked) [ONC0002614, be2254], with 77.21%; and `O=C(O)c1ccc(O)c2ncccc12` [ONC0001204, iox1], with 89.28%. Regarding `COc1cc2ncnc(Nc3ccc(O)c(Br)c3)c2cc1OC` [ONC0004777, whip154], the “% viability” value came out at 106.5%. For `Cc1ccc(S(N)(=O)=O)cc1` [ONC0003698, paratoluenesulfonamide] the value was 85.86%.
